Several values for one entry are separate records, joined by “and”; a condition that tells them apart may be missing. Equal entries are not always repeated. The list shows a part of the results. Several reference drugs read as weak here; read low effects with care.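 Human mesenchymal stem cells lacking the Werner syndrome gene, which age prematurely, were used. Automated live-cell imaging tracked growth across three biological repeats; the twenty drugs raising growth most relative to vehicle advanced, without a stated fixed cutoff.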
Test system: Werner syndrome hMSCs (WRN-/-)
Assay: relative cell density (fold change vs vehicle control); higher = more proliferation (geroprotective)
Conditions: concentration (umol/L): 1, 6 days

Compound | relative cell density (vehicle: DMSO) | relative cell density (vehicle: Water)
[I-].[K+] | 1.25 | –
Cc1cc(-n2c(=O)[nH]c(=O)n(C)c2=O)ccc1Oc1ccc(SC(F)(F)F)cc1 | 0.838 | –
Cc1ccccc1N1C(=O)c2cc(S(N)(=O)=O)c(Cl)cc2NC1C (centres undefined) | 0.95 | –
OCCOCCN1CCN(C(c2ccccc2)c2ccc(Cl)cc2)CC1 (centres undefined) | 1.12 | –
C=CC1=C(C(=O)O)N2C(=O)[C@@H](NC(=O)/C(=N\OCC(=O)O)c3csc(N)n3)[C@H]2SC1 | 1.18 | –
O=C(NS(=O)(=O)c1ccc(Br)s1)c1ccc(Cl)cc1Cl | 1.26 | –
O=S(=O)(O)CCCS(=O)(=O)O | – | 0.917
Nc1cccc2c1CN(C1CCC(=O)NC1=O)C2=O (centres undefined) | 0.964 | –
COc1ccc2[nH]c([S+]([O-])Cc3ncc(C)c(OC)c3C)nc2c1 (centres undefined) | 0.94 | –
CNC(=O)[C@H](Cc1ccccc1)NC(=O)[C@H](CC(C)C)[C@H](CSc1cccs1)C(=O)NO | 1.51 | –
Cn1nnnc1SCC1=C(C(=O)O)N2C(=O)[C@@H](NC(=O)[C@H](OC=O)c3ccccc3)[C@H]2SC1 | 1.07 | –
CCOC(=O)[C@H](CCc1ccccc1)N[C@@H](C)C(=O)N1CCC[C@H]1C(=O)O | 1.22 | –
Cc1noc(NS(=O)(=O)c2ccc(N)cc2)c1C | 1.01 | –
CCc1cccc2c3c([nH]c12)C(CC)(CC(=O)O)OCC3 (centres undefined) | 0.995 | –
CCC[C@H](NC(=O)[C@@H]1[C@H]2CCC[C@H]2CN1C(=O)[C@@H](NC(=O)[C@@H](NC(=O)c1cnccn1)C1CCCCC1)C(C)(C)C)C(=O)C(=O)NC1CC1 | 1.06 | –
C[C@]12CC[C@@H]3c4ccc(O)cc4CC[C@H]3[C@@H]1C[C@@H](O)[C@@H]2O | 1.19 | –
CC1=C(CC(=O)O)c2cc(F)ccc2/C1=C\c1ccc([S+](C)[O-])cc1 (centres undefined) | 1.3 | –
C=CC(=O)N1CCC[C@@H](n2nc(-c3ccc(Oc4ccccc4)cc3)c3c(N)ncnc32)C1 | 1.15 | –
Cn1c([N+](=O)[O-])cnc1COC(N)=O | 1.29 | –
CCN(c1cc(-c2ccc(CN3CCOCC3)cc2)cc(C(=O)NCc2c(C)cc(C)[nH]c2=O)c1C)C1CCOCC1 | – | 0.811
CCC1(c2c[nH]cn2)Cc2ccccc2C1 | 1.25 and 1.47 | –
CC[C@@H]1/C=C(\C)C[C@H](C)C[C@H](OC)[C@H]2O[C@@](O)(C(=O)C(=O)N3CCCC[C@H]3C(=O)O[C@H](/C(C)=C/[C@@H]3CC[C@H](Cl)[C@H](OC)C3)[C@H](C)[C@@H](O)CC1=O)[C@H](C)C[C@@H]2OC | 1.38 | –
CCCCCCCCN=c1ccn(CCCCCCCCCCn2ccc(=NCCCCCCCC)cc2)cc1 | 0.0213 | –
COc1ccc(C(=O)NCc2ccc(OCCN(C)C)cc2)cc1OC | 1.23 | –
N=C(N)N/N=C/c1c(Cl)cccc1Cl | 1.1 | –

Compound | relative cell density (vehicle: DMSO) | relative cell density (vehicle: Water)
Cc1ccc2c(Cl)cc(Cl)c(O)c2n1 | 0.994 | –
OC(CCN1CCCCC1)(c1ccccc1)C1CCCCC1 (centres undefined) | 1.46 | –
O=C(OCc1ccccc1)c1ccccc1 | 1.05 | –
CN(C)CCOC(=O)COc1ccc(Cl)cc1 | 1.18 | –
Brc1c(NC2=NCCN2)ccc2nccnc12 | 1.06 | –
N#Cc1ccc(Oc2ccc3c(c2)COB3O)cc1 | 1.05 | –
CC(N)C12CC3CC(CC(C3)C1)C2 (centres undefined) | 1.1 | –
C=C[C@@H]1C[C@]1(NC(=O)[C@@H]1C[C@@H](Oc2ncc(OC)c3ccc(Cl)cc23)CN1C(=O)[C@@H](NC(=O)OC(C)(C)C)C(C)(C)C)C(=O)NS(=O)(=O)C1CC1 | 1.09 | –
CCOC(=O)c1c(C)n(C)c2ccc(O)cc12 | 1.38 | –
COc1ccc(C[C@@H]2c3cc(OC)c(OC)cc3CC[N@+]2(C)CCC(=O)OCCCCCOC(=O)CC[N@@+]2(C)CCc3cc(OC)c(OC)cc3[C@H]2Cc2ccc(OC)c(OC)c2)cc1OC | 1.16 | –
CN(CCOc1ccc(CC2SC(=O)NC2=O)cc1)c1ccccn1 (centres undefined) | 1.22 and 1.17 and 1.11 | –
COC(=O)[C@@H]1[C@H]2C[C@H]3c4[nH]c5ccccc5c4CCN3C[C@@H]2CC[C@@H]1O | 1.16 | –
CC1(C)NC(=O)N(c2ccc([N+](=O)[O-])c(C(F)(F)F)c2)C1=O | 1.13 | –
CCCCCCc1ccc(O)cc1O | 1.45 | –
O=C(/C=C\n1cnc(-c2cc(C(F)(F)F)cc(C(F)(F)F)c2)n1)NNc1cnccn1 | 1.26 | –
Cc1nc(NC(=O)N2CCC[C@H]2C(N)=O)sc1-c1ccnc(C(C)(C)C(F)(F)F)c1 | 1.02 | –
CCCCc1nc(C)c(CC(=S)N(C)C)c(=O)n1Cc1ccc(-c2ccccc2-c2nnn[nH]2)cc1 | 1.09 | –
CC(C)NCC(O)COc1cccc2ccccc12 (centres undefined) | 0.686 | –
CCC1=C(C)CN(C(=O)NCCc2ccc(S(=O)(=O)NC(=O)N[C@H]3CC[C@H](C)CC3)cc2)C1=O | 1.07 | –
COc1cc(Nc2nc3ccccc3nc2NS(=O)(=O)c2ccc(NC(=O)c3ccc(C)c(OC)c3)cc2)cc(OC)c1 | 1.05 | –
CCS(=O)(=O)CCn1c([N+](=O)[O-])cnc1C | 0.942 | –
N#C[C@@H]1C[C@@H]2C[C@@H]2N1C(=O)[C@@H](N)C12CC3CC(CC(O)(C3)C1)C2 | 1.48 and 1.03 | –
O=C1CCc2cc(OCCCCc3nnnn3C3CCCCC3)ccc2N1 | 1.14 | –
CCCCOc1cc(C(=O)NCCN(CC)CC)c2ccccc2n1 | 0.678 | –
CCN1CC(CCN2CCOCC2)C(c2ccccc2)(c2ccccc2)C1=O (centres undefined) | 1.21 | –

Compound | relative cell density (vehicle: DMSO) | relative cell density (vehicle: Water)
CC(=O)N[C@H]1[C@H]([C@H](O)[C@H](O)CO)OC(C(=O)O)=C[C@@H]1NC(=N)N | – | 1.23
CCC(=O)O[C@]1(C(=O)CCl)[C@@H](C)C[C@H]2[C@@H]3C[C@H](F)C4=CC(=O)C=C[C@]4(C)[C@@]3(F)[C@@H](O)C[C@@]21C | 1.07 | –
CNCCC(Oc1ccc(C(F)(F)F)cc1)c1ccccc1 (centres undefined) | 1.02 | –
Cc1nc2n(c(=O)c1CCN1CCC(c3noc4cc(F)ccc34)CC1)CCCC2 | – | 0.369
N=C(N)NCCC[C@H](N)C(=O)O | – | 0.903
C[C@@H](CN1CC(=O)NC(=O)C1)N1CC(=O)NC(=O)C1 | 0.879 | –
CC(=O)Nc1ccc(CC(=O)O)cc1 | 1.22 | –
CC(=O)OCC(=O)[C@@]12N=C(C)O[C@@H]1C[C@H]1[C@@H]3CCC4=CC(=O)C=C[C@]4(C)[C@H]3[C@@H](O)C[C@@]12C | 1.52 | –
OCc1cc(C(O)CNCCCCCCOCCCCc2ccccc2)ccc1O (centres undefined) | 1.13 | –
CCOc1ccccc1OCCN[C@H](C)Cc1ccc(OC)c(S(N)(=O)=O)c1 | 1.15 | –
O=S(=O)(O)CCS | 0.994 | –
CCOC(=O)OC(C)OC1=C(C(=O)Nc2ccccn2)N(C)S(=O)(=O)c2ccccc21 (centres undefined) | 1.19 | –
O=C(Nc1c(Cl)cncc1Cl)c1ccc(OC(F)F)c(OCC2CC2)c1 | 1.38 | –
CCCS(=O)(=O)Nc1ccc(F)c(C(=O)c2c[nH]c3ncc(-c4ccc(Cl)cc4)cc23)c1F | 0.975 | –
CCCCNC(=O)NS(=O)(=O)c1ccc(C)cc1 | 1.25 | –
O=C(O)c1cc(-c2ccc(F)cc2F)ccc1O | 1.11 | –
CCCCCCCN(CC)CCCC(O)c1ccc(NS(C)(=O)=O)cc1 (centres undefined) | 1.08 | –
CC1(C)S[C@@H]2[C@H](NC(=O)[C@H](NC(=O)N3CCN(S(C)(=O)=O)C3=O)c3ccccc3)C(=O)N2[C@H]1C(=O)O | 1 | –
COc1cc(Nc2ncc(F)c(Nc3ccc4c(n3)N(COP(=O)(O)O)C(=O)C(C)(C)O4)n2)cc(OC)c1OC | 0.323 | 0.147
COc1ccc(-c2cc(=O)c3c(O)cc(O[C@@H]4O[C@H](CO[C@@H]5O[C@@H](C)[C@H](O)[C@@H](O)[C@H]5O)[C@@H](O)[C@H](O)[C@H]4O)cc3o2)cc1O | – | 0.857
CN1CC2c3ccccc3Oc3ccc(Cl)cc3C2C1 (centres undefined) | 1.18 | –
CC(C)(C)NC(=O)N[C@H](C(=O)N1C[C@H]2[C@@H]([C@H]1C(=O)NC(CC1CCC1)C(=O)C(N)=O)C2(C)C)C(C)(C)C (some centres undefined) | 1.17 | –
c1ccc2[nH]c(-c3cscn3)nc2c1 | 1.02 | –
CCCCCCCCc1ccc(CCC(N)(CO)CO)cc1 | 1.17 | –
C[C@]12CC[C@@H]3c4ccc(O)cc4CC[C@H]3[C@@H]1CCC2=O | 1.07 | –

Compound | relative cell density (vehicle: DMSO) | relative cell density (vehicle: Water)
COc1cc(C(=O)NC2CCCNC2)cc(OC)c1OC (centres undefined) | 1.07 | –
CN1CCC(COc2cnc(-c3cccc(Cn4nc(-c5cccc(C#N)c5)ccc4=O)c3)nc2)CC1 | 0.837 | –
CC(C)c1cc(C(=O)N2Cc3ccc(CN4CCN(C)CC4)cc3C2)c(O)cc1O | 0.698 | –
CCOC(=O)C1=C[C@]2(CC)CCCN3CCc4c(n1c1ccccc41)[C@@H]32 | – | 0.951
O=NN(CCCl)C(=O)NC1CCCCC1 | 0.996 | –
COc1cnc(NS(=O)(=O)c2ccc(N)cc2)nc1 | 1.07 | –
O=C(O)CCC(=O)Nc1ccc(S(=O)(=O)Nc2nccs2)cc1 | 1.2 | –
O=C([O-])[C@H](O)[C@@H](O)[C@H](O)[C@H](O)CO.[Na+] | – | 1.14
Cc1cccc(CN2CCN(C(c3ccccc3)c3ccc(Cl)cc3)CC2)c1 (centres undefined) | – | 1.2
COc1cc(Cc2cnc(N)nc2N)cc(OC)c1OC | 0.977 | –
COc1cc2c(cc1OC)C(=O)C(CC1CCN(Cc3ccccc3)CC1)C2 (centres undefined) | – | 0.837
OC[C@@H](O)[C@H](O)[C@@H](O)CO | 1.39 | –
CC1(COc2ccc3c(c2)ncn3-c2ccc3cccc(N4CCC(N)CC4)c3n2)COC1 | 0.93 | –
CNCC[C@H](Oc1cccc2ccccc12)c1cccs1 | 1.14 | –
CC1CCC(C(C)C)C(O)C1 (centres undefined) | 1.14 | –
Cc1c(C(N)=O)cc([N+](=O)[O-])cc1[N+](=O)[O-] | 0.932 | –
C=C[C@H]1CN2CC[C@H]1C[C@@H]2[C@@H](O)c1ccnc2ccc(OC)cc12 | 1.18 | –
N=C(N)N | 0.999 | –
N#Cc1ccc2[nH]cc(CCCCN3CCN(c4ccc5oc(C(N)=O)cc5c4)CC3)c2c1 | 0.152 | –
CN1C(C(=O)Nc2ccccn2)=C(O)c2sccc2S1(=O)=O | 1.17 | –
Cc1ncc([N+](=O)[O-])n1CC(O)CCl (centres undefined) | 1.13 | –
Cc1cccc(C)c1NC(=O)C1CCCCN1C (centres undefined) | 0.997 | –
CN(C)c1ccc2nc3ccc(=[N+](C)C)cc-3sc2c1 | 1.23 | –

Source: the supplement of paper PMC9226226
